Laboratory results: PubChem BioAssay AID1159595 (NIAID, 2016)
Here is a random part of 756 deposited reagents. Of all reagents, 115 (15%) were called active. 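Active calls cover both lowered and raised reporter signal; each score refers to one siRNA rather than a whole gene.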 The numbers tell different reagents against one gene apart. The record does not give: the amount of reagent.

Purpose: 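Which toll-like receptor pathway genes macrophages need for Pam3CSK4-induced Tnf promoter activity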 (primary screen)
System: mouse RAW264.7 macrophage reporter cells
Reagent: single siRNA against mouse genes
Time to read-out: assayed 48 to 72 hours after siRNA transfection; ligand applied for 16 hours
Conditions: Pam3CSK4 (TLR2 ligand) for 16 hours before fixation; dose not given
Measured: 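High-content imaging of Tnf promoter-driven nuclear mCherry in cells given Pam3CSK4 for 16 h, 48–72 h after transfection; value is the replicate mean of plate-normalised background-corrected robust z-scores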
Direction: Tnf reporter z-score (replicate mean): higher = stronger Tnf promoter reporter signal than negative control wells
Hit rule: 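An siRNA is active when its replicate-mean z-score is -1.5 or lower or 1.5 or higher (activity score at least 50); activity graded at absolute z 1, 1.5, 2 and 2.5; calls apply to single siRNAs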
Calls: active = strong change (up or down); inactive = little change

| gene knocked down | reagent no. | Tnf reporter z-score (replicate mean) | activity call |
| --- | --- | --- | --- |
| Mapk14 (mitogen-activated protein kinase 14) | 1 | -0.697 | inactive |
| Mapk14 (mitogen-activated protein kinase 14) | 2 | 0.413 | inactive |
| Mapk14 (mitogen-activated protein kinase 14) | 3 | -0.14 | inactive |
| Mapk14 (mitogen-activated protein kinase 14) | 4 | -0.637 | inactive |
| Mapk14 (mitogen-activated protein kinase 14) | 5 | -1.24 | inactive |
| Mapk14 (mitogen-activated protein kinase 14) | 6 | -1.18 | inactive |
| Ifnar1 (interferon (alpha and beta) receptor 1) | 1 | -1.13 | inactive |
| Ifnar1 (interferon (alpha and beta) receptor 1) | 2 | 0.0381 | inactive |
| Ifnar1 (interferon (alpha and beta) receptor 1) | 3 | -0.986 | inactive |
| Ifnar1 (interferon (alpha and beta) receptor 1) | 4 | 1.6 | active |
| Ifnar1 (interferon (alpha and beta) receptor 1) | 5 | -1.18 | inactive |
| Ifnar1 (interferon (alpha and beta) receptor 1) | 6 | -1.61 | active |
| Elk4 (ETS transcription factor ELK4) | 1 | -1.27 | inactive |
| Elk4 (ETS transcription factor ELK4) | 2 | 0.529 | inactive |
| Elk4 (ETS transcription factor ELK4) | 3 | -0.652 | inactive |
| Elk4 (ETS transcription factor ELK4) | 4 | 0.085 | inactive |
| Elk4 (ETS transcription factor ELK4) | 5 | -0.216 | inactive |
| Elk4 (ETS transcription factor ELK4) | 6 | -0.491 | inactive |
| Mapk10 (mitogen-activated protein kinase 10) | 1 | 1.63 | active |
| Mapk10 (mitogen-activated protein kinase 10) | 2 | 1.39 | inactive |
| Mapk10 (mitogen-activated protein kinase 10) | 3 | -0.635 | inactive |
| Mapk10 (mitogen-activated protein kinase 10) | 4 | 0.968 | inactive |
| Mapk10 (mitogen-activated protein kinase 10) | 5 | -0.767 | inactive |
| Mapk10 (mitogen-activated protein kinase 10) | 6 | -0.196 | inactive |
| Myd88 (myeloid differentiation primary response gene 88) | 1 | -1.39 | inactive |
| Myd88 (myeloid differentiation primary response gene 88) | 2 | -1.89 | active |
| Myd88 (myeloid differentiation primary response gene 88) | 3 | -1.53 | active |
| Myd88 (myeloid differentiation primary response gene 88) | 4 | -1.47 | inactive |
| Myd88 (myeloid differentiation primary response gene 88) | 5 | -1.39 | inactive |
| Myd88 (myeloid differentiation primary response gene 88) | 6 | -0.386 | inactive |
| Il6 (interleukin 6) | 1 | -0.676 | inactive |
| Il6 (interleukin 6) | 2 | -0.811 | inactive |
| Il6 (interleukin 6) | 3 | 0.569 | inactive |
| Il6 (interleukin 6) | 4 | -0.0372 | inactive |
| Il6 (interleukin 6) | 5 | 0.507 | inactive |
| Il6 (interleukin 6) | 6 | 0.0893 | inactive |
| Sigirr | 1 | -0.993 | inactive |
| Sigirr | 2 | -0.565 | inactive |
| Sigirr | 3 | -0.118 | inactive |
| Sigirr | 4 | 0.912 | inactive |
| Sigirr | 5 | -0.133 | inactive |
| Sigirr | 6 | 1.22 | inactive |
| Cxcl11 (chemokine (C-X-C motif) ligand 11) | 1 | -0.409 | inactive |
| Cxcl11 (chemokine (C-X-C motif) ligand 11) | 2 | -0.907 | inactive |
| Cxcl11 (chemokine (C-X-C motif) ligand 11) | 3 | 0.605 | inactive |
| Cxcl11 (chemokine (C-X-C motif) ligand 11) | 4 | 0.51 | inactive |
| Cxcl11 (chemokine (C-X-C motif) ligand 11) | 5 | -1.34 | inactive |
| Cxcl11 (chemokine (C-X-C motif) ligand 11) | 6 | -0.62 | inactive |
| Elf4 (E74 like ETS transcription factor 4) | 1 | -0.135 | inactive |
| Elf4 (E74 like ETS transcription factor 4) | 2 | -0.474 | inactive |
| Elf4 (E74 like ETS transcription factor 4) | 3 | -1.99 | active |
| Elf4 (E74 like ETS transcription factor 4) | 4 | -0.0941 | inactive |
| Elf4 (E74 like ETS transcription factor 4) | 5 | -1.37 | inactive |
| Elf4 (E74 like ETS transcription factor 4) | 6 | 0.466 | inactive |
| Fadd (Fas associated via death domain) | 1 | -0.702 | inactive |
| Fadd (Fas associated via death domain) | 2 | -2.26 | active |
| Fadd (Fas associated via death domain) | 3 | -0.627 | inactive |
| Fadd (Fas associated via death domain) | 4 | 0.503 | inactive |
| Fadd (Fas associated via death domain) | 5 | -0.564 | inactive |
| Fadd (Fas associated via death domain) | 6 | -0.934 | inactive |
| Tlr8 (toll-like receptor 8) | 1 | 1.9 | active |
| Tlr8 (toll-like receptor 8) | 2 | 0.629 | inactive |
| Tlr8 (toll-like receptor 8) | 3 | -0.159 | inactive |
| Tlr8 (toll-like receptor 8) | 4 | 0.592 | inactive |
| Tlr8 (toll-like receptor 8) | 5 | -1.84 | active |
| Tlr8 (toll-like receptor 8) | 6 | 0.138 | inactive |
| Relb (Relb proto-oncogene, NFKB subunit) | 1 | -0.161 | inactive |
| Relb (Relb proto-oncogene, NFKB subunit) | 2 | 0.29 | inactive |
| Relb (Relb proto-oncogene, NFKB subunit) | 3 | -1.5 | active |
| Relb (Relb proto-oncogene, NFKB subunit) | 4 | 0.836 | inactive |
| Relb (Relb proto-oncogene, NFKB subunit) | 5 | -2.46 | active |
| Relb (Relb proto-oncogene, NFKB subunit) | 6 | -1.29 | inactive |
| Irak1 (interleukin-1 receptor-associated kinase 1) | 1 | -0.516 | inactive |
| Irak1 (interleukin-1 receptor-associated kinase 1) | 2 | 0.59 | inactive |
| Irak1 (interleukin-1 receptor-associated kinase 1) | 3 | -0.544 | inactive |
| Irak1 (interleukin-1 receptor-associated kinase 1) | 4 | -0.00972 | inactive |
| Irak1 (interleukin-1 receptor-associated kinase 1) | 5 | -0.0772 | inactive |
| Irak1 (interleukin-1 receptor-associated kinase 1) | 6 | -0.46 | inactive |
| Pik3cd | 1 | -0.326 | inactive |
| Pik3cd | 2 | -0.733 | inactive |
| Pik3cd | 3 | -0.336 | inactive |
| Pik3cd | 4 | -0.413 | inactive |
| Pik3cd | 5 | -0.241 | inactive |
| Pik3cd | 6 | -1.04 | inactive |
| Fos (Fos proto-oncogene, AP-1 transcription factor subunit) | 1 | -1.97 | active |
| Fos (Fos proto-oncogene, AP-1 transcription factor subunit) | 2 | -0.405 | inactive |
| Fos (Fos proto-oncogene, AP-1 transcription factor subunit) | 3 | 0.895 | inactive |
| Fos (Fos proto-oncogene, AP-1 transcription factor subunit) | 4 | -0.297 | inactive |
| Fos (Fos proto-oncogene, AP-1 transcription factor subunit) | 5 | -0.766 | inactive |
| Fos (Fos proto-oncogene, AP-1 transcription factor subunit) | 6 | 0.0851 | inactive |
| Il1rl1 (interleukin 1 receptor-like 1) | 1 | 1.03 | inactive |
| Il1rl1 (interleukin 1 receptor-like 1) | 2 | -1.04 | inactive |
| Il1rl1 (interleukin 1 receptor-like 1) | 3 | -0.961 | inactive |
| Il1rl1 (interleukin 1 receptor-like 1) | 4 | -0.549 | inactive |
| Il1rl1 (interleukin 1 receptor-like 1) | 5 | -1.14 | inactive |
| Il1rl1 (interleukin 1 receptor-like 1) | 6 | -0.0693 | inactive |
| Map3k1 (mitogen-activated protein kinase kinase kinase 1) | 1 | -0.0766 | inactive |
| Map3k1 (mitogen-activated protein kinase kinase kinase 1) | 2 | -2.82 | active |
| Map3k1 (mitogen-activated protein kinase kinase kinase 1) | 3 | 0.627 | inactive |
| Map3k1 (mitogen-activated protein kinase kinase kinase 1) | 4 | 0.125 | inactive |
| Map3k1 (mitogen-activated protein kinase kinase kinase 1) | 5 | -0.00639 | inactive |
| Map3k1 (mitogen-activated protein kinase kinase kinase 1) | 6 | -0.752 | inactive |
| Tlr6 (toll-like receptor 6) | 1 | -0.313 | inactive |
| Tlr6 (toll-like receptor 6) | 2 | 1.28 | inactive |
| Tlr6 (toll-like receptor 6) | 3 | -1.97 | active |
| Tlr6 (toll-like receptor 6) | 4 | -0.88 | inactive |
| Tlr6 (toll-like receptor 6) | 5 | 0.252 | inactive |
| Tlr6 (toll-like receptor 6) | 6 | -0.415 | inactive |
| Pik3r1 (phosphoinositide-3-kinase regulatory subunit 1) | 1 | -1.39 | inactive |
| Pik3r1 (phosphoinositide-3-kinase regulatory subunit 1) | 2 | 0.0859 | inactive |
| Pik3r1 (phosphoinositide-3-kinase regulatory subunit 1) | 3 | 0.228 | inactive |
| Pik3r1 (phosphoinositide-3-kinase regulatory subunit 1) | 4 | 0.21 | inactive |
| Pik3r1 (phosphoinositide-3-kinase regulatory subunit 1) | 5 | -0.427 | inactive |
| Pik3r1 (phosphoinositide-3-kinase regulatory subunit 1) | 6 | -1.28 | inactive |

Targets above whose gene name begins with R or r (6):
| gene knocked down | reagent no. | Tnf reporter z-score (replicate mean) | activity call |
| --- | --- | --- | --- |
| Relb (Relb proto-oncogene, NFKB subunit) | 1 | -0.161 | inactive |
| Relb (Relb proto-oncogene, NFKB subunit) | 2 | 0.29 | inactive |
| Relb (Relb proto-oncogene, NFKB subunit) | 3 | -1.5 | active |
| Relb (Relb proto-oncogene, NFKB subunit) | 4 | 0.836 | inactive |
| Relb (Relb proto-oncogene, NFKB subunit) | 5 | -2.46 | active |
| Relb (Relb proto-oncogene, NFKB subunit) | 6 | -1.29 | inactive |
